This assay addresses T1, FLAG-FAM83H (human) (UniProt Q6ZRV2).
T1 sequence: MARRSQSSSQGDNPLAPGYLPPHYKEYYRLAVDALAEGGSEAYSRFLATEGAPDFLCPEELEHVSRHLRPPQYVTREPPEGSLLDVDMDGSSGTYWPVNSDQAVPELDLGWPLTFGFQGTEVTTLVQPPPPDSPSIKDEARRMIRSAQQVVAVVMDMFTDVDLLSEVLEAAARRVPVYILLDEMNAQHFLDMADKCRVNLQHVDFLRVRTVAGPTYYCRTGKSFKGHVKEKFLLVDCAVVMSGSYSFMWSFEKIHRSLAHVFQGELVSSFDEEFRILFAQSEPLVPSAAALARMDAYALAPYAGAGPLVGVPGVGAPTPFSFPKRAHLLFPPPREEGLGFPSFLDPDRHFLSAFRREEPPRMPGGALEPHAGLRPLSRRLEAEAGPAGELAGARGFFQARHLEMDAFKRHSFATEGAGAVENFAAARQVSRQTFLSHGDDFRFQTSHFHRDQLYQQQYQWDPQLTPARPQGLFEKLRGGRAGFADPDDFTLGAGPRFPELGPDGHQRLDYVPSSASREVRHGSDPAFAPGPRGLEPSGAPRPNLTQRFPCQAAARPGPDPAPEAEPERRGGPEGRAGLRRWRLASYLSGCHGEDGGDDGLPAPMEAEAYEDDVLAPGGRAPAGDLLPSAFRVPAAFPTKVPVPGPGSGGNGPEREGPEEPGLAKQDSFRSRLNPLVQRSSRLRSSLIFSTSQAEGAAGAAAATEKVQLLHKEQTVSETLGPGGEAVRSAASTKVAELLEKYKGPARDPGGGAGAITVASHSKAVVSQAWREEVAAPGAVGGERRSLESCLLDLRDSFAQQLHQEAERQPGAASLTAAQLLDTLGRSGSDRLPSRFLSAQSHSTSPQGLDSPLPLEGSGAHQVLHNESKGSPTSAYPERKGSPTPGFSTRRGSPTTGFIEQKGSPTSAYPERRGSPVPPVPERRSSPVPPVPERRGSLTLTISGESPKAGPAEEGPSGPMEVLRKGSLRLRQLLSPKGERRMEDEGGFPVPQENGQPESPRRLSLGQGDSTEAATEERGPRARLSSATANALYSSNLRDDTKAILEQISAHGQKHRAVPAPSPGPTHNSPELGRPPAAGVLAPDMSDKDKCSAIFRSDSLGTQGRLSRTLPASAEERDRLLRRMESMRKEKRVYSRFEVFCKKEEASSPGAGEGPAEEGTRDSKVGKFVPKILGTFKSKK
Kind of assay: co-IP; HEK293T cells transfected with FLAG-FAM83H and/or HA-β-catenin; lysate in IP lysis buffer, anti-FLAG magnetic beads overnight at 4 °C, washed 3-4 times with IP buffer, immunoblot.

By UniProt entry, the sequences of proteins in these tests, tags left out.
UniProt P35222: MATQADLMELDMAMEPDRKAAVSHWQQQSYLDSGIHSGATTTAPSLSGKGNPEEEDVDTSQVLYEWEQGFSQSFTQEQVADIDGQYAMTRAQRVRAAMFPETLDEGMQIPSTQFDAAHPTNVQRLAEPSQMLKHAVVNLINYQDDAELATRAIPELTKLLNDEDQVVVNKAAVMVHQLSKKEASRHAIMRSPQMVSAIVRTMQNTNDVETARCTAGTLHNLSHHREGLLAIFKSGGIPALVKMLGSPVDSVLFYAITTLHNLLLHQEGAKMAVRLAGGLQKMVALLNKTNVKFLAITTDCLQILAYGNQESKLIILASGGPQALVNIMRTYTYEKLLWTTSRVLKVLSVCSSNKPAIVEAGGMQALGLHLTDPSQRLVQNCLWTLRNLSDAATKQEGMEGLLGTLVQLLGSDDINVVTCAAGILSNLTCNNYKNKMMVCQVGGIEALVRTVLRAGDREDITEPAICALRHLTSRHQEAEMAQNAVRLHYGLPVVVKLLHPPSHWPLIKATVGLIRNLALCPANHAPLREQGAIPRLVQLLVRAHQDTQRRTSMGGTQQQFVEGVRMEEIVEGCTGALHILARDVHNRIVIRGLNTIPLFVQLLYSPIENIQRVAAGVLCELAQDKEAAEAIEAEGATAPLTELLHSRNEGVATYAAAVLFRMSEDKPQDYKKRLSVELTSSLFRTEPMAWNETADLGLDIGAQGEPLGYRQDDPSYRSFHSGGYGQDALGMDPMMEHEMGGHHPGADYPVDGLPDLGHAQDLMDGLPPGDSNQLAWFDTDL

These are yes or no findings as the source states them, for the method shown. In cells and extracts the contact can be indirect. Some binding calls cover weakened binding; strength is not graded here. Where a sequence is shown, tags or fusion partners need not be part of it.

Take “HA-β-catenin (from UniProt P35222 1-781)”: the binding result is listed as “binds”.

On to “endogenous β-catenin (from UniProt P35222 1-781)”, for which the binding entry is “binds”.

For the origin of these results see paper PMC9520839.
